Laboratory results reported in the supplement of paper PMC9262897, “Low-cost anti-mycobacterial drug discovery using engineered E. coli” (Nature Communications, 2022).
Structures can show the parent of a compound that is named as a salt. ± gives the standard deviation of the averaged measurements. This list holds what a sample rich in lowest values left over.

System: E. coli TESEC Mtb Alr
Assay: growth (OD600 after 10 h); higher = more growth (less inhibition)
Settings: compound 0.1 mM
Protocol: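 TESEC Mtb Alr E. coli, or the Alr+ wild-type control, in 384-well plates with Prestwick library compounds at 0.1 mM and 1% DMSO, across arabinose induction levels of 1E3 to 1E7 nM. Growth is read as OD600 after 10 h at 37 °C in triplicate biological replicates.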

Structure (SMILES): CN1[C@@H]2CC[C@H]1C[C@@H](OC(=O)C(O)c1ccccc1)C2 (mixture of isomers) [Homatropine hydrobromide (R,S)]
- growth (arabinose 1000 nM, raw OD600 reference: median of DMSO wells 0.294, cell-free background 0.041): 0.304 ± 0.004
- growth (arabinose 10000 nM, raw OD600 reference: median of DMSO wells 0.264, cell-free background 0.041): 0.249 ± 0.0075
- growth (arabinose 100000 nM, raw OD600 reference: median of DMSO wells 0.201, cell-free background 0.041): 0.213 ± 0.013
- growth (arabinose 1000000 nM, raw OD600 reference: median of DMSO wells 0.193, cell-free background 0.041): 0.184 ± 0.018
- growth (arabinose 10000000 nM, raw OD600 reference: median of DMSO wells 0.146, cell-free background 0.041): 0.153 ± 0.0044
